Measurements: the supplement of paper PMC10689618
Structures can show the parent of a compound that is named as a salt. The list shows a part of the results. Repeats are few or missing, and single values can be far off.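 Primary human fetal astrocytes engulfed labelled rat cortical synaptosomes, measured as a red/green ratio corrected for calcein live-cell signal and scaled to the plate median. Toxicity meant calcein falling over 30%; decreased phagocytosis meant below 70% of median above 5 µM.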

System: Human fetal astrocytes
Assay: synaptosome phagocytosis (pHrodo/calcein intensity ratio) relative to plate median of data wells; higher = more phagocytosis
Settings: 1.39 µM; 24 h

| SMILES | synaptosome phagocytosis [%] |
| --- | --- |
| CCC(=O)N1CCN(C(=O)c2ccccc2)CC1 | 124 |
| O=C(N[C@@H](Cc1ccccc1)C(=O)CCl)OCc1ccccc1 [Z-L-Phe chloromethyl ketone] | 92.9 |
| CN(C)CCCO[C@@H]1[C@H]2OC(C)(C)O[C@H]2O[C@@H]1[C@H](O)CO [Amiprilose hydrochloride] | 115 |

Same assay, conditions: 2.78 µM; 24 h

| SMILES | synaptosome phagocytosis [%] |
| --- | --- |
| CCC(=O)N1CCN(C(=O)c2ccccc2)CC1 | 96.8 |
| O=C(N[C@@H](Cc1ccccc1)C(=O)CCl)OCc1ccccc1 [Z-L-Phe chloromethyl ketone] | 93.1 |
| CN(C)CCCO[C@@H]1[C@H]2OC(C)(C)O[C@H]2O[C@@H]1[C@H](O)CO [Amiprilose hydrochloride] | 117 |

Same assay, conditions: 5.56 µM; 24 h

| SMILES | synaptosome phagocytosis [%] |
| --- | --- |
| CCC(=O)N1CCN(C(=O)c2ccccc2)CC1 | 106 |
| O=C(N[C@@H](Cc1ccccc1)C(=O)CCl)OCc1ccccc1 [Z-L-Phe chloromethyl ketone] | 75.1 |
| CN(C)CCCO[C@@H]1[C@H]2OC(C)(C)O[C@H]2O[C@@H]1[C@H](O)CO [Amiprilose hydrochloride] | 107 |

Same assay, conditions: 11.11 µM; 24 h

| SMILES | synaptosome phagocytosis [%] |
| --- | --- |
| CCC(=O)N1CCN(C(=O)c2ccccc2)CC1 | 83.3 |
| O=C(N[C@@H](Cc1ccccc1)C(=O)CCl)OCc1ccccc1 [Z-L-Phe chloromethyl ketone] | 23.9 |
| CN(C)CCCO[C@@H]1[C@H]2OC(C)(C)O[C@H]2O[C@@H]1[C@H](O)CO [Amiprilose hydrochloride] | 76.8 |

Same assay, conditions: 22.22 µM; 24 h

| SMILES | synaptosome phagocytosis [%] |
| --- | --- |
| CCC(=O)N1CCN(C(=O)c2ccccc2)CC1 | 90.5 |
| O=C(N[C@@H](Cc1ccccc1)C(=O)CCl)OCc1ccccc1 [Z-L-Phe chloromethyl ketone] | 2.1 |
| CN(C)CCCO[C@@H]1[C@H]2OC(C)(C)O[C@H]2O[C@@H]1[C@H](O)CO [Amiprilose hydrochloride] | 81.7 |
